# Laboratory results as given in PubChem BioAssay AID652054 (National Center for Advancing Translational Sciences (NCATS), 2013).
# Sequences of proteins named here, by UniProt entry; tags and fusion partners are left off.
# UniProt P35462, whole entry, looked up: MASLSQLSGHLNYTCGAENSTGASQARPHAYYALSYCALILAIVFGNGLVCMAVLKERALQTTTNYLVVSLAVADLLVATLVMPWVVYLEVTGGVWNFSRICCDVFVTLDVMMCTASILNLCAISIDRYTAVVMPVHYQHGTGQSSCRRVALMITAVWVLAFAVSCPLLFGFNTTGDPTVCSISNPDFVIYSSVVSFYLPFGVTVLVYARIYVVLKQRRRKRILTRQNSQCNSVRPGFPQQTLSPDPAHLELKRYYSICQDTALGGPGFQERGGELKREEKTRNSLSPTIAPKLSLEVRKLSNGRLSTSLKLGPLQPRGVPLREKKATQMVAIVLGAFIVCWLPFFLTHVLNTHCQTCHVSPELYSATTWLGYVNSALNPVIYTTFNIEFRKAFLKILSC
# Screen size: about 360,000 compounds; about 9,100 (2.5%) were called active. The inconclusive results got no clear call from the source; some entries with a clear call stand among them for comparison. No stated cut-off is given here; in the data, active means max response below about -50%; inconclusive means no clear call, values can overlap the other calls; inactive means above that.
# Biological target: D(3) dopamine receptor (Homo sapiens) (UniProt P35462)
# Assay: qHTS of D3 Dopamine Receptor Antagonist: qHTS
# Conditions: D3R cells, DiscoveRx beta-arrestin luminescence, antagonist mode; hits give low values
# Summary of the method: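 Cells expressing the human receptor were seeded at 1500 cells/well, incubated overnight at 37 degrees C in 5% CO2, then exposed to library compounds with dopamine controls for 90 minutes at 37 degrees C before luminescent detection.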
# On the % scale 0 is the no-effect control and ±100 the full control effect.
row,SMILES,"max response, negative = inhibition"
1,CCCc1cc(C(=O)NNC(=S)NC2CCCCC2)cs1,inconclusive: -49%
2,O=C(N/N=C/c1ccc[nH]1)c1ccccc1OCc1ccccc1Cl,inactive: 2.9%
3,O=C(Nc1cccc(-c2cccc(Cl)c2)c1)C1CCN(Cc2ccccn2)CC1,inactive: -13.1%
4,CC1C2Cn3c(nc4ccccc43)C1N(C(C)C)O2 (stereo unspecified),inconclusive: -43.8%
5,O=[N+]([O-])c1cccc(Cn2cnc3c(=S)nc[nH]c32)c1,inconclusive: -33.4%
6,O=C(Nc1cccc2c1CCCC2)c1ccc(Cl)c([N+](=O)[O-])c1,inactive: 16.8%
7,C=CCN1C(=O)C(Cc2cccc(C)c2)SC1=Nc1ccc(C(=O)O)cc1 (stereo unspecified),inactive: -11.5%
8,c1ccc(OCCSc2nnnn2C2CCCCC2)cc1,inconclusive: -31%
9,Cc1cccc(C)c1N1C(=O)c2ccccc2NC(=O)C1C(=O)Nc1ccc2c(c1)OCCO2 (stereo unspecified),inactive: 9.36%
10,Cc1cc(NC(=O)CCC(=O)N(CC2CCCO2)C(C(=O)NC2CCCC2)c2cccnc2)no1 (stereo unspecified),inconclusive: -36.7%
11,Cn1c(N)c(C(=O)COC(=O)Cn2cc(C(F)(F)F)ccc2=O)c(=O)n(C)c1=O,inconclusive: -30.5%
12,Cc1noc(C)c1CCC(=O)NC1CCCN(Cc2ccc(Cl)cc2)C1 (stereo unspecified),inactive: -18.3%
13,O=C(NC(=S)Nc1ccc(S(=O)(=O)Nc2nccs2)cc1)c1ccc(Br)o1,inconclusive: -44.5%
14,COc1ccc(CNC(=O)Cn2nc([N+](=O)[O-])cc2C)cc1,inactive: -1.4%
15,CN(Cc1c(F)cccc1Cl)C(=O)COC(=O)Cn1cnc2ccccc2c1=O,inactive: 16%
16,COc1cc(NS(=O)(=O)c2ccc(NC(=S)NC(=O)c3sc4cc(F)ccc4c3Cl)cc2)nc(OC)n1,inactive: -19.6%
17,C=CCNCCOc1c(C)cc(C)cc1Cl,inconclusive: -34.8%
18,CC1(C(=O)NS(=O)(=O)Cc2cccc(Cl)c2)CCN1C(=O)Cc1ccccc1 (stereo unspecified),inactive: -2.25%
19,COc1ccc(C(=O)Nc2nncs2)c(OC)c1,inconclusive: -37.3%
20,O=C(Nc1ccc(CN2CCCCC2)cc1)c1sc2ccccc2c1Cl,inconclusive: -42.3%
21,Cc1ccc(C)c(OCC(O)CN2CCC(Cc3ccccc3)CC2)c1 (stereo unspecified),inactive: -6.52%
22,Clc1ccc2c(c1)C1CC2CCN1Cc1ccccc1 (stereo unspecified),inconclusive: -41%

row,SMILES,"max response, negative = inhibition"
1,Cc1cc(N/N=C\c2ccc(Br)cc2)nc(-n2nc(C)cc2C)n1,active: -54.3%
2,COCCn1c(SCC(=O)NCc2ccc3c(c2)OCO3)nnc1-c1c[nH]c2ccccc12,inconclusive: -36%
3,CC(C)NC(=O)c1cc(-c2ccc3c(c2)OCO3)on1,inconclusive: -43.2%
4,Clc1ccccc1OCc1nc(-c2ccncc2)no1,inconclusive: -36.3%
5,O=C(CN1CCC(n2nnc3cc(F)ccc32)CC1)NC1CC1,active: -56.7%
6,CCOc1ccc(CNC(=O)C2CCN(c3nnc(C)c4c(C)n(-c5ccc(C)cc5)nc34)CC2)cc1,inactive: -2.86%
7,O=C(NCc1ccco1)c1cc(-c2ccccn2)nc2ccccc12,inactive: -2.89%
8,CCN(CC)C(=O)c1cc2c(=O)oc3ccccc3c2s1,inconclusive: -42.1%
9,O=C(NCC(c1ccco1)N1CCc2ccccc21)C(=O)Nc1ccccc1F (stereo unspecified),inconclusive: -42.8%
10,O=C(NNC(=O)c1ccc(SCC2CCCO2)c([N+](=O)[O-])c1)c1ccc(Cl)c([N+](=O)[O-])c1 (stereo unspecified),inconclusive: -36.8%
11,CCN(CC)C(=O)c1cc(Cl)ccn1,inconclusive: -48.1%
12,CC(C)C(c1nnnn1Cc1ccco1)N1CCC(C(N)=O)CC1 (stereo unspecified),inconclusive: -49.2%
13,COc1cccc(-c2nc(CS(=O)(=O)CC(=O)NCCCN3CC(C)CC(C)C3)c(C)o2)c1 (stereo unspecified),inconclusive: -30.7%
14,Cc1ccc2oc(=O)c3cnn(CC(=O)N(CCCN4CCOCC4)Cc4ccco4)c3c2c1,inconclusive: -38.6%
15,Cc1ccc(-n2c(C)cc(/C=N/NC(=O)c3ccncc3)c2C)cc1C,inconclusive: -30.1%
16,O=C1NC[C@@H](c2ccccc2)OC(=O)[C@@H](Cc2ccc(F)cc2)C/C=C\C[C@@H]1CC(=O)N(CCO)Cc1ccccc1,inconclusive: -45.4%
17,Cc1ccccc1Cn1cnc2c(cnn2C(C)(C)C)c1=O,inactive: 9.34%
18,Cc1cnc(C)c(N2CCC(C(=O)NCc3ccco3)CC2)n1,inconclusive: -30.5%
19,Cc1cc(/C=N/NC(N)=S)c(C)n1-c1ccc(Cl)c(Cl)c1,inconclusive: -48%
20,Cc1c(C(=O)Nc2cccc([N+](=O)[O-])c2)cnn1-c1ccccc1,inconclusive: -30.1%
21,CSc1cc(C)c(OCC(=O)Nc2ccc(NC(C)=O)cc2)c(C)c1,active: -52.5%
22,Cc1ccc(Nc2cccccc2=O)cc1,inconclusive: -47.2%

row,SMILES,"max response, negative = inhibition"
1,CC1C(=O)C(C)C(c2cc(Br)ccc2O)NC1c1cc(Br)ccc1O (stereo unspecified),inconclusive: -30.4%
2,COc1ccccc1NC(=S)NNC(=O)c1ccc(Cl)cc1Cl,inconclusive: -35.2%
3,C[C@H](CO)N1C[C@H](C)[C@H](CN(C)S(=O)(=O)c2cccc(F)c2)Oc2cc(Br)ccc2S1(=O)=O,inactive: 22.6%
4,CC1(C(=O)Nc2ccc3c(c2)OCO3)Cc2c(-c3cccc(C(F)(F)F)c3)ccnc2O1 (stereo unspecified),inconclusive: -31.1%
5,O=c1c2c3c(sc2nc2n1CCCCC2)CCC3,inconclusive: -39.8%
6,COc1ccc(N2CCN(C(=O)Nc3cccc(C(F)(F)F)c3)CC2)cc1,inconclusive: -35%
7,COC(=O)[C@]1(Cc2ccccc2)N[C@H](c2ccc(-c3ccc(Cl)c(Cl)c3)cc2)[C@@H]2C(=O)N(C)C(=O)[C@@H]21,inconclusive: -34.6%
8,CC(=O)Nc1ccc(S(=O)(=O)NNC(=O)c2cc3c4ccccc4n(C)c3s2)cc1,inconclusive: -34.5%
9,COc1cc(OC)c(C=NNC(=S)NC23CC4CC(CC(C4)C2)C3)c(OC)c1,inconclusive: -30.7%
10,CCOC(=O)/C(=C\c1ccc(OC)c(OC)c1)C(=O)c1cccnc1,active: -50.1%
11,OC(COc1ccc(Br)cc1)CN1CCC(Cc2ccccc2)CC1 (stereo unspecified),inconclusive: -49.1%
12,CCN1/C(=C\c2ccc3cc(C)ccc3[n+]2CC)Sc2cc(C)c(C)cc21,inactive: 0.522%
13,CCOC(=O)c1ccc(NC(=O)CCC(CC)C(=O)O)cc1 (stereo unspecified),inconclusive: -41.1%
14,O=C1Nc2ccccc2C1(c1ccccc1)c1ccccc1,inactive: -25%
15,COc1cccc(CN(C)CC(=O)Nc2sc3c(c2C#N)CCC3)c1OC,inactive: 4.09%
16,Cc1cccc(CS(=O)(=O)c2ncc(Cl)c(C(=O)NCc3ccccc3)n2)c1,active: -82%
17,CC(C)CCCCCCCCCCCCC(=O)NCC(=O)NC1C(O)C(O)C(Nc2ncnc3nc[nH]c23)OC1C(O)CO (stereo unspecified),inconclusive: -38.5%
18,O=c1oc2ccccc2c(Nc2ccc(Cl)cc2)c1[N+](=O)[O-],inactive: 15%
19,CC1CCC(C(C)C)C(OC(=O)Cn2c(-c3ccc(F)cc3)[n+](C)c3ccccc32)C1 (stereo unspecified),active: -72.1%
20,O=C(Nc1nc2c(s1)CCCC2)c1ccc(Br)s1,active: -67%
21,O=C(COc1cccc(C(F)(F)F)c1)N1CCN(c2ccc(O)cc2)CC1,inactive: 8.05%
22,CCN1CCN(C(=O)c2ccc3c(c2)N(Cc2ccc(F)cc2)C(=O)c2ccccc2S3=O)CC1 (stereo unspecified),inconclusive: -49.4%

row,SMILES,"max response, negative = inhibition"
1,COc1cccc(NC(=S)N/N=C2/CCCCc3ccccc32)c1,active: -59.5%
2,Cc1ccc(C(=O)N/C(=C\c2cccs2)C(=O)NCc2ccncc2)cc1,inconclusive: -34.6%
3,Cc1c(CCOC(=O)C23CC4CC(CC(C)(C4)C2)C3)sc[n+]1Cc1ccccc1,inconclusive: -48.2%
4,C[C@@H]1O[C@H](C2CC2)Cc2[nH]c(=S)[nH]c(=O)c21,inconclusive: -41.7%
5,CC(C)(C)c1ccc(-c2noc(CCC(=O)N3CCOCC3)n2)cc1,inactive: -9.31%
6,CC(C)=CCN1CCN(CCC2=C(C)CCCC2(C)C)CC1CCO (stereo unspecified),active: -90.2%
7,O=C1N(Cc2cccnc2)C[C@@H]2C[C@@H](c3ccccc3C(F)(F)F)N3CCC[C@@]123,inconclusive: -30.2%
8,CC1CC(C)CN(CCCNC(=O)c2ccc(CS(=O)(=O)Cc3cccc(Cl)c3)o2)C1 (stereo unspecified),inconclusive: -35.5%
9,CCOC(=O)C1(C)CCN1C(=O)c1c(F)cccc1F (stereo unspecified),inactive: 37.5%
10,CC1(C)CC(=O)C=C(c2ccc(Cl)c(C(F)(F)F)c2)C1,inconclusive: -35.3%
11,Cc1nnc(SCC(=O)N2c3ccccc3C(C)(c3ccc(Cl)cc3)CC2(C)C)s1 (stereo unspecified),inconclusive: -43.9%
12,Cc1ccc(NCC(=O)N/N=C/c2cccc(Oc3ccccc3)c2)cc1,inactive: 20.9%
13,CCOc1ccc(CN2CCCC(CO)(Cc3ccccc3F)C2)cc1 (stereo unspecified),inconclusive: -46.9%
14,COC(=O)c1ccccc1NC(=O)CSc1nccn1C,inactive: 4.67%
15,CC1CCCCC12NC(=O)N(CC(=O)Nc1ccc(Cl)c(S(=O)(=O)N3CCOCC3)c1)C2=O (stereo unspecified),inactive: -6.87%
16,COc1ccccc1C(CNC(=O)c1oc2ccccc2c1C)N1CCCC1 (stereo unspecified),inconclusive: -31.1%
17,COc1ccc(-c2cc3ccccc3n2CC(O)CN2CCC(C)CC2)cc1 (stereo unspecified),active: -111%
18,COc1ccccc1NC(=S)N1CCN(C(c2ccccc2)c2ccccc2)CC1,inactive: -5.17%
19,O=C(CN1C(=O)COc2ccc(S(=O)(=O)N3CCOCC3)cc21)Nc1cccc(Cl)c1,inconclusive: -36.3%
20,Oc1ccc(C=NNc2nc3ccccc3s2)c(O)c1,inactive: -4.66%

# Taken from the entries so far (four entries):
row,SMILES,"max response, negative = inhibition"
17,CC(C)CCCCCCCCCCCCC(=O)NCC(=O)NC1C(O)C(O)C(Nc2ncnc3nc[nH]c23)OC1C(O)CO (stereo unspecified),inconclusive: -38.5%
18,O=c1oc2ccccc2c(Nc2ccc(Cl)cc2)c1[N+](=O)[O-],inactive: 15%
19,CC1CCC(C(C)C)C(OC(=O)Cn2c(-c3ccc(F)cc3)[n+](C)c3ccccc32)C1 (stereo unspecified),active: -72.1%
20,O=C(Nc1nc2c(s1)CCCC2)c1ccc(Br)s1,active: -67%

# Structural class: the entries above containing a tert-butyl group
row,SMILES,"max response, negative = inhibition"
17,Cc1ccccc1Cn1cnc2c(cnn2C(C)(C)C)c1=O,inactive: 9.34%
5,CC(C)(C)c1ccc(-c2noc(CCC(=O)N3CCOCC3)n2)cc1,inactive: -9.31%
